Assay results published in paper PMC5620043, “A general mechanism of ribosome dimerization revealed by single-particle cryo-electron microscopy” (Nature Communications, 2017).
These are yes or no findings as the source states them, for the method shown. Some results given as binding are weak or reduced against the parent protein; the word gives no strength.

Protein sequences, listed by entry. Tags and fused reporters are not part of them.
UniProt A2RNV0: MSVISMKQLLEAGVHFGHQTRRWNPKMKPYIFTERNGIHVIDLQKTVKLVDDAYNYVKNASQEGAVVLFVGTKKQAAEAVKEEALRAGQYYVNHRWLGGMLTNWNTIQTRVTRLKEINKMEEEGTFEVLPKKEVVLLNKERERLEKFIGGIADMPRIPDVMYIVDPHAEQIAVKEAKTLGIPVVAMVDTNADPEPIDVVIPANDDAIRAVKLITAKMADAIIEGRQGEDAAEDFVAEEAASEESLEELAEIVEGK

How the values were obtained:
[1] = target: hibernation promotion factor HPF^long of Lactococcus lactis, as bound in native 100S ribosomes (Lactococcus lactis (subsp. cremoris, MG1363)) (UniProt A2RIX0); assay: cryo-EM structure; native 100S ribosome dimers from L. lactis MG1363 (sucrose gradient fractions, buffer I: 20 mM Tris-HCl pH 7.6, 15 mM magnesium acetate, 100 mM ammonium acetate, 6 mM 2-mercaptoethanol); 50S-masked map at 5.6 Å; 100S map rebuilt from two copies of it to model the interface
[2] = target: ribosomal protein uS2 of the L. lactis 30S subunit (Lactococcus lactis (subsp. cremoris, MG1363)) (UniProt A2RNV0); assay: as above

binding [1]: binds
binding [2]: binds
B1: HPF^long from L. lactis with N-terminal Strep-tag (natural protein, UniProt A2RIX0 1-185, looked up)
chain: MIKFNIRGENVEVTDAIRAYVEDKIGKLDKYFNDGHEVTAYVNLKVYTEKRAKVEVTLPAKNVTLRAEDTSQDMYSSIDFVEEKLERQIRKYKTRMNRKPRNAVPTGQVFGDEFAPLDTTDEVAEDHVDIVRTKHVALKPMDAEEAVLQMDMLGHDFYVFTDADSNGTHVVYRRTDGRYGLIETE
notes: HPF^long of Lactococcus lactis, 185 residues, calculated monomer mass 21.3 kDa; also called purified HPF^long; source: overexpressed in L. lactis NZ9000, purified on a Strep-tactin Sepharose column
